Data as given in PubChem BioAssay AID1053208 (Peter MacCallum Cancer Centre, 2014).
In all, the deposit lists about 17,000 reagents; shown is an unselected part. 788 of them (4.7%) were called active. 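Calls rest on z-score classes alone; an extra cut-off of viability at most 70% of control was not applied to them.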 Unmarked entries are inactive. Not all columns of the deposit are shown.

Screen: 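Genes whose silencing cuts survival of bone tumour cells only with doxorubicin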 (primary screen)
Cells: mouse osteosarcoma cells, early-passage culture from an engineered mouse model of fibroblastic bone tumour
Reagents: siRNA pool against mouse genes, 40 nM
Time to read-out: about 120 h (48 h before drug, then 72 h with drug)
Conditions: doxorubicin 100 nM for 72 h, roughly 30-40% inhibitory dose
Measurement: 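Luminescent ATP signal taken as viability with or without 100 nM doxorubicin for 72 h; mean of two wells set against non-targeting siRNA and turned into robust z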
Direction: viability z-score with doxorubicin: higher = more viable cells under doxorubicin; viability z-score without drug: higher = more viable cells with knock-down alone
Rule for the call: 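a pool counts as active when its viability z-score with doxorubicin is -2 or below and its z-score without drug lies between -2 and 2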

gene knocked down	combined z-score class	viability z-score with doxorubicin	viability z-score without drug
B130006D01Rik (GeneID 320616)	no change with or without drug	0	-0.17
Klf11 (GeneID 194655)	no change with or without drug	1.24	1.52
Tmem164 (GeneID 209497)	no change with or without drug	1.12	0.51
Srm (GeneID 20810)	no change with or without drug	-0.22	-1.52
Gabpb1 (GeneID 14391)	no change with or without drug	-1.57	-0.17
Apod (GeneID 11815)	no change with or without drug	1.8	1.18
Six2 (GeneID 20472)	no change with or without drug	0.9	0.67
Rb1cc1 (GeneID 12421)	high cell count without drug only	1.91	3.37
Col6a1 (GeneID 12833)	high cell count without drug only	-1.12	2.36
Tmem167b (GeneID 67495)	no change with or without drug	-0.45	0
Smagp (GeneID 207818)	high cell count without drug only	1.12	2.02
Kif22 (GeneID 110033)	low cell count with doxorubicin only (active)	-2.02	-0.67
Svbp (GeneID 69216)	no change with or without drug	0.67	0.84
Fbxo27 (GeneID 233040)	no change with or without drug	-1.69	0.84
Qrfprl (GeneID 243407)	no change with or without drug	0	0.34
Or4f4b (GeneID 258399)	no change with or without drug	-1.91	-0.51
Josd1 (GeneID 74158)	no change with or without drug	-1.57	0
Retnlb (GeneID 57263)	no change with or without drug	-0.34	-0.51
Tmem97 (GeneID 69071)	high cell count without drug only	-0.45	2.19
Phf13 (GeneID 230936)	no change with or without drug	-0.67	0.84
Gpsm1 (GeneID 67839)	no change with or without drug	0.9	1.52
Lin7b (GeneID 22342)	no change with or without drug	-1.57	-1.69

6 entries from above, set out differently.
Kif22 (GeneID 110033) → combined z-score class: low cell count with doxorubicin only (active); viability z-score with doxorubicin: -2.02; viability z-score without drug: -0.67
Svbp (GeneID 69216) → combined z-score class: no change with or without drug; viability z-score with doxorubicin: 0.67; viability z-score without drug: 0.84
Fbxo27 (GeneID 233040) → combined z-score class: no change with or without drug; viability z-score with doxorubicin: -1.69; viability z-score without drug: 0.84
Qrfprl (GeneID 243407) → combined z-score class: no change with or without drug; viability z-score with doxorubicin: 0; viability z-score without drug: 0.34
Or4f4b (GeneID 258399) → combined z-score class: no change with or without drug; viability z-score with doxorubicin: -1.91; viability z-score without drug: -0.51
Josd1 (GeneID 74158) → combined z-score class: no change with or without drug; viability z-score with doxorubicin: -1.57; viability z-score without drug: 0

The listing continues:
gene knocked down	combined z-score class	viability z-score with doxorubicin	viability z-score without drug
Lmf2 (GeneID 105847)	no change with or without drug	-0.34	-0.67
Cep95 (GeneID 320162)	no change with or without drug	0.22	0.84
Uhmk1 (GeneID 16589)	low cell count with doxorubicin only (active)	-2.81	0.34
Babam2 (GeneID 107976)	no change with or without drug	0.22	0
Kin (GeneID 16588)	no change with or without drug	-0.9	-0.67
Or6c76b (GeneID 258252)	no change with or without drug	-0.67	-0.51
Oxr1 (GeneID 170719)	low cell count with doxorubicin only (active)	-2.47	-0.84
Cbx1 (GeneID 12412)	no change with or without drug	-0.22	-0.51
Dyrk2 (GeneID 69181)	no change with or without drug	1.12	0.51
Ankrd7 (GeneID 75196)	no change with or without drug	-1.12	-0.34
Smim12 (GeneID 80284)	no change with or without drug	0.9	0.51
Ppp1r1a (GeneID 58200)	no change with or without drug	0.67	0.84
